Measured values taken from paper PMC7819943, “Rice protein-binding microarrays: a tool to detect cis-acting elements near promoter regions in rice”.
The list shows a part of the results.

The chains behind the UniProt entries cited, without tags or fusion partners.
UniProt Q0JBA9, entry or part of it: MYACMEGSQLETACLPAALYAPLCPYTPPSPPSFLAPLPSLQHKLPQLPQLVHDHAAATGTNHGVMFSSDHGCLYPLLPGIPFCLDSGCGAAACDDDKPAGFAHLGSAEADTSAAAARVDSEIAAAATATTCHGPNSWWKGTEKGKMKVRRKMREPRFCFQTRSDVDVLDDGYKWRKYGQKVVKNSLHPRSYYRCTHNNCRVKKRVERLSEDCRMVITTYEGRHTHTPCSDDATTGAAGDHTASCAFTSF

These sequences were tested against OsWRKY34 (Oryza sativa, UniProt Q0JBA9 1-250) (assay: protein-binding microarray (RPBM); PBS, 2% BSA, 51.3 ng/ul salmon testes DNA, 50 uM zinc acetate, 200 nM TF, 25 C, 1 h; high values mean tight binding). Settings: protein: recombinant; tags: N-terminal polyhistidine and DsRed monomer fusion (pET32a); label: CyDye5-dUTP incorporated in the synthesized complementary strand; 3' TTTTT single-stranded linker to array surface; dsDNA, one strand shown.
Procedure, shortened: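 The binding signal for each feature is its fluorescence intensity in arbitrary units. An Axon 4000B scanner was used to read a custom Agilent array that had been made double-stranded with Cy5-dUTP primer extension, blocked with 2% BSA, incubated at 25 °C for 1 h with 200 nM protein in PBS, 2% BSA, salmon testes DNA and 50 µM zinc acetate, and washed. The protein was an N-terminal polyhistidine–DsRed transcription factor fusion from E. coli BL21-CodonPlus, purified on Ni–NTA.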
With “GAAATATCAACAACCCTATAAAAAAAGTCAACCCATGTACCGGAGTCACCTAGTGCAG” the binding signal was 9120 fluorescence intensity (a.u.).
With “GTCCAGATTCGTTAAACTATTGTGTCTCATTTTTAACTAGCGGAGTCACCTAGTGCAG” the binding signal was 8810 fluorescence intensity (a.u.).
For “AATTTTCGTTACTGTATTCGCACCGGTTCATTTTCGCTCCCGGAGTCACCTAGTGCAG”, the binding signal was 9150 fluorescence intensity (a.u.).
With “CGCCCACCTCCGCTCCGCTGCCACGCTCGCCCTCCGCCACCGGAGTCACCTAGTGCAG” the binding signal was 11600 fluorescence intensity (a.u.).
In the case of “GCCCACGCACGACGCGCCTCCCACGCCCACACTGCACCGCCGGAGTCACCTAGTGCAG”, the binding signal is reported as 8180 fluorescence intensity (a.u.).
With “TCCATCGAAATCCTTCCGCCGCGTTTCAAATTTCTTTCTCCGGAGTCACCTAGTGCAG” the binding signal was 9350 fluorescence intensity (a.u.).
“GGTTGACCGTAGTCAACTCGCCACGTTGACTAGAACCGAGCGGAGTCACCTAGTGCAG” was tested, and the binding signal was 17900 fluorescence intensity (a.u.).
In the case of “ACATTTCTCTCTTTCTTTTATATTGATTTTCTTGCTCTTTCGGAGTCACCTAGTGCAG”, the binding signal is reported as 8490 fluorescence intensity (a.u.).
In the case of “GTTTAGAACACGGCCCTAATGTCTTTATTTGATTGATCATCGGAGTCACCTAGTGCAG”, the binding signal is reported as 9400 fluorescence intensity (a.u.).
With “ATCATATTGTTTTCATCATGTAACATGTCCACTTTATTCTCGGAGTCACCTAGTGCAG” the binding signal was 8550 fluorescence intensity (a.u.).
With “CATGGGTTTTTTCTTCCTTTTCCTTTGAGAGATATGATCACGGAGTCACCTAGTGCAG” the binding signal was 8440 fluorescence intensity (a.u.).
For “TCCCTGTCATTCCATCGTTTGTTCCATCCCATGGACCGGCCGGAGTCACCTAGTGCAG”, the binding signal was 9740 fluorescence intensity (a.u.).
In the case of “TTCGGTTGATGCCATGGTAACTGTCTTGCTATGTATGTGTCGGAGTCACCTAGTGCAG”, the binding signal is reported as 9870 fluorescence intensity (a.u.).
With “CTTTCCTTTTTCCTTTGTCTCACGTTTTCCCCTCCCAGAACGGAGTCACCTAGTGCAG” the binding signal was 8060 fluorescence intensity (a.u.).
In the case of “TTCTGAATGCCTTTTCGTTTATGTATATACTTATTCGAACCGGAGTCACCTAGTGCAG”, the binding signal is reported as 9300 fluorescence intensity (a.u.).
With “ACTTATGTTTTGCTGCTCTGCGCAGAGAGCTGTCCTTGAACGGAGTCACCTAGTGCAG” the binding signal was 8320 fluorescence intensity (a.u.).
In the case of “GTTCGCTGACTGATTGATTTCTTTTCAATCCCCGCGCGCGCGGAGTCACCTAGTGCAG”, the binding signal is reported as 11700 fluorescence intensity (a.u.).
For “AGCATTTGTTGTTTTGCGCATACTGACTTGGTAATAGCTACGGAGTCACCTAGTGCAG”, the binding signal was 10400 fluorescence intensity (a.u.).
“TTCTTCTCTCTCTCTTGTCACTCATCATCATCACTCTTCACGGAGTCACCTAGTGCAG” was tested, and the binding signal was 10900 fluorescence intensity (a.u.).
For “TTTGGTTGAATCTTATCCTAAACGTTGATTTTTGTTTTTACGGAGTCACCTAGTGCAG”, the binding signal was 9320 fluorescence intensity (a.u.).
“CTGTGACTCTCACGCGTTGGTCTTTTCGTCTCGGCCTCGTCGGAGTCACCTAGTGCAG” was tested, and the binding signal was 9950 fluorescence intensity (a.u.).
In the case of “ACCATGACTCCTCTCTCTGAACGGCTGAACCTTATTGGCACGGAGTCACCTAGTGCAG”, the binding signal is reported as 8200 fluorescence intensity (a.u.).
In the case of “CGGCGAAATCCGCCGACCTTGCGCCTCTGTCCGCCTCCGCCGGAGTCACCTAGTGCAG”, the binding signal is reported as 8120 fluorescence intensity (a.u.).
With “TGCCCTCTTTCTCTACAACTTGCAAGGCTCCTGTCGGGGTCGGAGTCACCTAGTGCAG” the binding signal was 8750 fluorescence intensity (a.u.).
“TACATCCCTCCACGTCATCGATCCGCGCCGCGTGCCTTCCCGGAGTCACCTAGTGCAG” was tested, and the binding signal was 9950 fluorescence intensity (a.u.).
For “TCGCACTGTTTCACCGGTCGCCCAATCGCCACCGCGCCCGCGGAGTCACCTAGTGCAG”, the binding signal was 8060 fluorescence intensity (a.u.).
With “GATCATTTTGCCAGTCTGTCTGGTGTCTGAACTTGTAAGCCGGAGTCACCTAGTGCAG” the binding signal was 10800 fluorescence intensity (a.u.).
With “CATAATTCAGACTACCCCTGATTTTTTTATTTTAGCCTACCGGAGTCACCTAGTGCAG” the binding signal was 8320 fluorescence intensity (a.u.).
In the case of “AGCAGCCAGACGATTCTCTTCAGTTTCTTACATCTTCCAACGGAGTCACCTAGTGCAG”, the binding signal is reported as 9000 fluorescence intensity (a.u.).
With “CACCAATACCGGTCCATCTCGCTTTTCTCAATCTCCATAGCGGAGTCACCTAGTGCAG” the binding signal was 11800 fluorescence intensity (a.u.).
With “TGGGACTAATTTGTTGTCGTAGATCTTCATGTTTTTTCTACGGAGTCACCTAGTGCAG” the binding signal was 10700 fluorescence intensity (a.u.).
For “TGTCGTCACCGTGGTCTCTACCTGCTGCTCCACTCCCACCCGGAGTCACCTAGTGCAG”, the binding signal was 10400 fluorescence intensity (a.u.).
“GGGTTTATTTGGGCGGTGGGGAGAAATCCGTGGTTCGGTGCGGAGTCACCTAGTGCAG” was tested, and the binding signal was 15200 fluorescence intensity (a.u.).
With “CTTTTTTTTGTTAGCAGCCTCTTTATCCTGTTCTTTGAGGCGGAGTCACCTAGTGCAG” the binding signal was 11000 fluorescence intensity (a.u.).
“CAAATTTTGGTTTTCTTGGTTGCTTTTTGAGAACATGAGCCGGAGTCACCTAGTGCAG” was tested, and the binding signal was 8300 fluorescence intensity (a.u.).
“GTCGCCGCCTCCTCCTCTCCATCTCCGCTGCTATTATTGCCGGAGTCACCTAGTGCAG” was tested, and the binding signal was 12900 fluorescence intensity (a.u.).
“GTCTCTTCTCTTCTCTCGTGCAAGGCCGGCAGTGTACCGTCGGAGTCACCTAGTGCAG” was tested, and the binding signal was 9270 fluorescence intensity (a.u.).
With “AACAGGGAGCGCGCTTTGCCAGATCTACCCCGTTCCATTCCGGAGTCACCTAGTGCAG” the binding signal was 8040 fluorescence intensity (a.u.).
“TCAGTTTTTGGCTCCAACAATAGTGTTGGTTTGATTTTTACGGAGTCACCTAGTGCAG” was tested, and the binding signal was 9210 fluorescence intensity (a.u.).
With “CCACGCCAATTAGCATCCCACGTTTCGCCTTTGATTGTGGCGGAGTCACCTAGTGCAG” the binding signal was 8090 fluorescence intensity (a.u.).
For “CCGCATCCACAGTTCTTTTCCTTTTTGTGAGTTTCTTTTTCGGAGTCACCTAGTGCAG”, the binding signal was 11100 fluorescence intensity (a.u.).
With “CAATTTTACCTCGGACTTATTATCTGCTCTGCGAGATTAGCGGAGTCACCTAGTGCAG” the binding signal was 8130 fluorescence intensity (a.u.).
